Measurements reported in PubChem BioAssay AID1259308 (NCATS, 2017)
The deposit covers about 59,000 reagents; this is an unselected part. In the full data, about 1,510 (2.6%) got an active call. 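Calls use total luciferase alone and ignore viability, so some active siRNAs may act by altering cell number.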 Entries without a mark were called inactive. The numbers tell different reagents against one gene apart. Not all columns of the deposit are shown.

Screen: 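Knock-downs that increase output of a recombinant reporter protein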 (primary screen)
Cells: human HEK293 embryonic kidney cells stably expressing firefly luciferase (HEK-CMV-Luc2-Hygro)
Reagent: single siRNA against human genes, 0.8 pmol siRNA per well
Timing: 72 h
Measured: 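Reporter luminescence and viable-cell signal on separate replicate plates, given as percent of non-targeting control and median/MAD z-scores, plus per-cell luciferase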
Reading the numbers: total luciferase, z-score and total luciferase, % of control: higher = more reporter protein produced; luciferase per cell, z-score: higher = more reporter output per viable cell
Active means: 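An siRNA counts as active if its total luciferase robust z-score exceeds 3; genes with two or more such siRNAs out of three were retested with fresh siRNAs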
Meaning of the calls: active = raised luciferase; inactive = no rise

no.	Target gene	reagent no.	total luciferase, z-score	total luciferase, % of control	luciferase per cell, z-score
1	TNFRSF17 (GeneID 608)	1	1.4	110	0.0851
2	TNFRSF17 (GeneID 608)	2	-0.171	78.5	0.797
3	TNFRSF17 (GeneID 608)	3	0.021	82.3	0.349
4	RBM15B (GeneID 29890)	1	-0.14	79.1	-0.678
5	RBM15B (GeneID 29890)	2	-1.31	55.8	-0.862
6	RBM15B (GeneID 29890)	3	-1.94	43.4	-1.49
7	PLA2G15 (GeneID 23659)	1	-0.783	66.3	-1.41
8	PLA2G15 (GeneID 23659)	2	3.54 (active)	152	2.97
9	PLA2G15 (GeneID 23659)	3	0.236	86.6	0.13
10	TM9SF3 (GeneID 56889)	1	-0.888	64.2	-0.446
11	TM9SF3 (GeneID 56889)	2	-0.444	73.1	-0.488
12	TM9SF3 (GeneID 56889)	3	-0.221	77.5	-0.0953
13	KCNS2 (GeneID 3788)	1	0.748	96.8	0.241
14	KCNS2 (GeneID 3788)	2	-0.766	66.7	0.0543
15	KCNS2 (GeneID 3788)	3	2.07	123	0.837
16	SEMG1 (GeneID 6406)	1	0.681	95.4	1.29
17	SEMG1 (GeneID 6406)	2	-0.252	76.9	0.185
18	SEMG1 (GeneID 6406)	3	1.05	103	0.491
19	MKI67 (GeneID 4288)	1	-1.8	46.1	-1.39
20	MKI67 (GeneID 4288)	2	-0.447	73	-0.878
21	MKI67 (GeneID 4288)	3	-0.264	76.6	-0.561
22	MECR (GeneID 51102)	1	0.516	92.1	0.368
23	MECR (GeneID 51102)	2	-0.542	71.1	-0.688
24	MECR (GeneID 51102)	3	1.06	103	1.03
25	GFPT1 (GeneID 2673)	1	1.45	111	1.02
26	GFPT1 (GeneID 2673)	2	-2.04	41.2	-2
27	GFPT1 (GeneID 2673)	3	-0.368	74.6	-1.11
28	IGFL2 (GeneID 147920)	1	-0.0139	81.6	0.299
29	IGFL2 (GeneID 147920)	2	-0.584	70.3	-0.494
30	IGFL2 (GeneID 147920)	3	-0.223	77.5	-0.363
31	TMEM45A (GeneID 55076)	1	0.23	86.5	0.689
32	TMEM45A (GeneID 55076)	2	1.91	120	2.14
33	TMEM45A (GeneID 55076)	3	0.173	85.3	0.187
34	CDRT15 (GeneID 146822)	1	0.538	92.6	0.207
35	CDRT15 (GeneID 146822)	2	-1.41	53.9	-1.28
36	CDRT15 (GeneID 146822)	3	1.62	114	0.339
37	PPP3CC (GeneID 5533)	1	-2.62	29.8	-0.657
38	PPP3CC (GeneID 5533)	2	1.35	109	1.2
39	PPP3CC (GeneID 5533)	3	-1.13	59.3	-1.11
